Results are given in words; binding and its absence hold for the method and conditions named. For some assays here: Binding seen in cells or lysates may run through a third protein. Some results given as binding are weak or reduced against the parent protein; the word gives no strength. For some assays here: Where a sequence is shown, tags or fusion partners need not be part of it.
T1: Fc-NRP2 (UniProt O60462)
T1 sequence: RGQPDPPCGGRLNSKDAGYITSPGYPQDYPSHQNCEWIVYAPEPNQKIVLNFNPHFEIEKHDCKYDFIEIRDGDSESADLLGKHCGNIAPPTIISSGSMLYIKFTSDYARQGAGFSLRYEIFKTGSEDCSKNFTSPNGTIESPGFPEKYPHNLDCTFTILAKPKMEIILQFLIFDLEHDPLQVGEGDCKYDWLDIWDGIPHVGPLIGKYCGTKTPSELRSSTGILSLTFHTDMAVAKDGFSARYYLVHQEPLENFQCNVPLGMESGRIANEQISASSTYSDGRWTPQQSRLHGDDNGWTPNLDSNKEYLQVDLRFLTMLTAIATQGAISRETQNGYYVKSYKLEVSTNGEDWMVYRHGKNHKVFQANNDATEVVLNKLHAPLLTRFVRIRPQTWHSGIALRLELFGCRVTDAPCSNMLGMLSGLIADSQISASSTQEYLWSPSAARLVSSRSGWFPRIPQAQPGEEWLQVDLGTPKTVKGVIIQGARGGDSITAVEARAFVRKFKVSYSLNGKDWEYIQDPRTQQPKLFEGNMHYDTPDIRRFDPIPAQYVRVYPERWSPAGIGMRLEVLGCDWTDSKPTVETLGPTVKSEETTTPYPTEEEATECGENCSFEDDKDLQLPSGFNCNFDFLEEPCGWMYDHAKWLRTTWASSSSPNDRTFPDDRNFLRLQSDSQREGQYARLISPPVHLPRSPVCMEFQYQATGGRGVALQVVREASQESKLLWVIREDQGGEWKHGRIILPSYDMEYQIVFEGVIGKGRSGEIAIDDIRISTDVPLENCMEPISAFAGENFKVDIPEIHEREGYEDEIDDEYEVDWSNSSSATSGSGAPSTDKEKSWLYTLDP

Sequences of proteins named here, by UniProt entry; tags and fusion partners are left off. Residues count along the entry.
UniProt P01137, residues 279-390: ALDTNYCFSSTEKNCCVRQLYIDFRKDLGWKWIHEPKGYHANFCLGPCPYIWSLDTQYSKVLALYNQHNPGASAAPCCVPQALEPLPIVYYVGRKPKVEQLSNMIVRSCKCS

T2: TGFβ-type1 receptor (TGFRI) (human (endogenous in HT29)) (UniProt P36897)
T2 sequence: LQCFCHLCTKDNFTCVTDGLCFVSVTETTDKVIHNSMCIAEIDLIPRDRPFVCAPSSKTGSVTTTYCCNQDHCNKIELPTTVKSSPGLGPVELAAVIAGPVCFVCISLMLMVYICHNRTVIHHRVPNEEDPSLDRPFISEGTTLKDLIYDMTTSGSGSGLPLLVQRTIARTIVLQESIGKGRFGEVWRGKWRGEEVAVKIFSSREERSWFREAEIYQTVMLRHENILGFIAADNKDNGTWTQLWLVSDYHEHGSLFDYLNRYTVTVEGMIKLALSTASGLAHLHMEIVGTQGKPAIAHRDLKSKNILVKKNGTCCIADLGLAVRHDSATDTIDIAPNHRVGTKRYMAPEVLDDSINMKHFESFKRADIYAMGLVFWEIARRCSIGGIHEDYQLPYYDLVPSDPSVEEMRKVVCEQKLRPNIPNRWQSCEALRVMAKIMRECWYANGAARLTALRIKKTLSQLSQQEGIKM

B1: neuropilin-2 (NRP2) expressed in HT29^NRP2 cells (receptor, UniProt O60462 21-931)
chain: RGQPDPPCGGRLNSKDAGYITSPGYPQDYPSHQNCEWIVYAPEPNQKIVLNFNPHFEIEKHDCKYDFIEIRDGDSESADLLGKHCGNIAPPTIISSGSMLYIKFTSDYARQGAGFSLRYEIFKTGSEDCSKNFTSPNGTIESPGFPEKYPHNLDCTFTILAKPKMEIILQFLIFDLEHDPLQVGEGDCKYDWLDIWDGIPHVGPLIGKYCGTKTPSELRSSTGILSLTFHTDMAVAKDGFSARYYLVHQEPLENFQCNVPLGMESGRIANEQISASSTYSDGRWTPQQSRLHGDDNGWTPNLDSNKEYLQVDLRFLTMLTAIATQGAISRETQNGYYVKSYKLEVSTNGEDWMVYRHGKNHKVFQANNDATEVVLNKLHAPLLTRFVRIRPQTWHSGIALRLELFGCRVTDAPCSNMLGMLSGLIADSQISASSTQEYLWSPSAARLVSSRSGWFPRIPQAQPGEEWLQVDLGTPKTVKGVIIQGARGGDSITAVEARAFVRKFKVSYSLNGKDWEYIQDPRTQQPKLFEGNMHYDTPDIRRFDPIPAQYVRVYPERWSPAGIGMRLEVLGCDWTDSKPTVETLGPTVKSEETTTPYPTEEEATECGENCSFEDDKDLQLPSGFNCNFDFLEEPCGWMYDHAKWLRTTWASSSSPNDRTFPDDRNFLRLQSDSQREGQYARLISPPVHLPRSPVCMEFQYQATGGRGVALQVVREASQESKLLWVIREDQGGEWKHGRIILPSYDMEYQIVFEGVIGKGRSGEIAIDDIRISTDVPLENCMEPISAFAGENFKVDIPEIHEREGYEDEIDDEYEVDWSNSSSATSGSGAPSTDKEKSWLYTLDPILITIIAMSSLGVLLGATCAGLLLYCTCSYSGLSSRSCTTLENYNFELYDGLKHKVKMNHQKCCSEA

Key:
[1] = biological target: T1, Fc-NRP2; experiment: SPR; Fc-NRP2 covalently grafted on a chemically activated self assembled monolayer of a homemade chip (7.4 +/- 0.1 femtomole/mm^2 of NRP2); analytes injected at 250 nM in PBS-Tween 0.05%, pH 7.4; Biacore 2000, 25°C, flow rate between 2 and 30 µl/min; both purified
[2] = biological target: T2, TGFβ-type1 receptor (TGFRI) (human (endogenous in HT29)); experiment: co-IP; HT29^NRP2 cell lysate (1% Triton X100, 100 mM NaCl, Tris-HCl pH 7.4); rabbit anti-TGFRI polyclonal antibodies or rabbit IgG, overnight at 4°C, Protein-G magnetic beads; Western blot with anti-NRP2

Molecule	binding [1]	binding [2]
transforming growth factor β1 (TGF-β1) (from UniProt P01137 279-390) (ligand)	binds	–
B1	–	binds
